Results on seven molecules are retold here after patent publication US20230210853A1 (Halia Therapeutics, Inc., priority 2020, published 2023).

Protein sequences, listed by entry. Tags and fused reporters are not part of them.
UniProt Q8TDX7, whole entry: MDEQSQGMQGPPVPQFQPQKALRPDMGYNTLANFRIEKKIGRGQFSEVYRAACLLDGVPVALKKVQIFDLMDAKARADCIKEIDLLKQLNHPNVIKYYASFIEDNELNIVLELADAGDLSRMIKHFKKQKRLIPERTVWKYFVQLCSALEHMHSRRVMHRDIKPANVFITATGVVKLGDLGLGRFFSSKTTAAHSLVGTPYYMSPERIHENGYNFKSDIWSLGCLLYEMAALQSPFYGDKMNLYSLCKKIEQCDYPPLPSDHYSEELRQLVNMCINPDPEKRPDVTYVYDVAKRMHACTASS

pIC50: −log10 of the molar value. The structures given here were assigned with low confidence; some may be wrong. Where only a bound is given, the exact number is not on record here.

The subject of the first assay is IL-1β release. Briefly: IL-1β release assay (PMA-differentiated THP-1 cells, LPS + nigericin, cleaved IL-1β by JESS). The note with it: read-out: IL-1β release IC50, Table 2d. The procedure: Approximately 1.5 million THP-1 cells were plated in each well of a 6-well TC plate and incubated with 40 nM PMA in RPMI (10% FBS, 1% Penstrep) for 24 hours. The media was then removed and cells were rested in RPMI (10% FBS, 1% Penstrep) for 24 hours after which time the media was removed and cells were pre-treated for 2 hours with various concentrations of compounds of interest (typically serial 3-fold dilution in RPMI +5% FBS, concentrations ranging from 1 μM to 0.5 nM) in RPMI (5% FBS). The media was again removed and cells were incubated with 250 ng/mL LPS and compounds of interest (concentrations as above) in RMPI (5% FBS) for 2 hours. The media was removed for a last time and cells were incubated with 20 μM nigericin and compounds of interest (concentrations as above) in Opti-MEM for 30 minutes. Cell media was then collected and the amount of cleaved IL-1β was determined using a JESS instrument (Protein Simple) and standard protocols. Cleaved […] antibody was obtained from Cell Signaling (catalogue #83186S) and was used at 1:20 dilution in antibody diluent 2. […]
Approximately 1.5 million THP-1 cells were plated in each well of a 6-well TC plate and incubated with 40 nM PMA in RPMI (10% FBS, 1% Penstrep) for 24 hours. […] Cell media was then collected and the amount of cleaved IL-1β was determined using a JESS instrument (Protein Simple) and standard protocols. […]
As a reminder, the pIC50 is the negative decadic logarithm of the IC50, by convention in mol/L. Turning to `CN1CCN(Cc2ccc(NC(=O)Nc3ccc(-c4cn(C)c5ncnc(N)c45)cc3F)cc2C(F)(F)F)CC1`, the pIC50 was greater than 6.82.

A further assay deals with full-length recombinant human NEK7 (Homo sapiens, UniProt Q8TDX7). Put plainly: NEK7 enzymatic assay ([33P]-ATP, casein substrate). As to conditions: read-out: NEK7 IC50, Table 2d. The protocol: In some embodiments, the IC50 of the compounds of Structure (I), (Ia), (Ib), (Ic), (Id), (Ie), or (If) to inhibit NEK7 was determined by the concentration of the compound required to inhibit 50% of the activity of the NEK kinase.
(§1) Casein substrate (from bovine milk, hydrolyzed and partially dephosphorylated mixture of α, β and κ caseins, obtained from Sigma Aldrich, catalogue #C4765, diluted in distilled water to a final concentration of 1 mg/mL) and full-length recombinant human NEK7 (expressed by baculovirus in Sf9 insect cells using a N-terminal GST tag, obtained from SignalChem, catalogue #N09-10G, 0.1 μg/μL) were mixed in assay buffer (20 mM Hepes pH 7.5, 10 mM MgCl2, 1 mM EGTA, 0.02% Brij35, 0.02 mg/ml BSA, 0.1 mM Na3 VO4, 2 mM DTT, 1% DMSO). Compounds of interest (serial 3-fold dilution in DMSO from 10 μM to 0.5 nM) or vehicle (1% DMSO) were dispensed into the kinase reaction mixture by Acoustic technology (Echo550, nanoliter range). After incubation at room temperature for 20 minutes, the kinase reaction was initiated by addition of [^33P]-ATP (specific activity 10 μCi/μl) and the mixture was incubated at room temperature for 2 hours. The reaction was then stopped by spotting the reaction mixture on strips of phosphocellulose P81 paper. Following washing, the radioactivity of the P81 paper was measured and kinase activity data were expressed as the percent remaining kinase activity in test samples compared to vehicle reactions. IC50 values and curve fits were obtained using Prism (GraphPad Software).
as §1, with “μg/L)” for “μg/μL)”, “Na3VO4,” for “Na3 VO4,”, “(Echo550;” for “(Echo550,”
Regarding `CN1CCN(Cc2ccc(NC(=O)Nc3ccc(-c4cn(C5CC5)c5ncnc(N)c45)cc3F)c(C(F)(F)F)c2)CC1`, the pIC50 was less than 5.82.

On to `CN1CCN(Cc2ccc(NC(=O)Nc3ccc(-c4cn(C5CC5)c5ncnc(N)c45)cc3F)cc2C(F)(F)F)C2(CC2)C1`, for which the pIC50 is 6.30 to 6.52.

Turning to `CN1CCN(Cc2ccc(NC(=O)Nc3ccc(-c4cn(C5CC5)c5ncnc(N)c45)cn3)cc2C(F)(F)F)CC1`, the pIC50 was greater than 6.82.

`CN1C[C@@H]2CN(Cc3ccc(NC(=O)Nc4ccc(-c5cn(C6CC6)c6ncnc(N)c56)cc4F)cc3C(F)(F)F)C[C@@H]2C1`: the negative logarithm of the IC50 (pIC50) is greater than 6.82.

For the molecule `CC(c1ccc(NC(=O)Nc2ccc(-c3cn(C4CC4)c4ncnc(N)c34)cc2F)cc1C(F)(F)F)N1CCN(C)CC1` (centres unmarked), the negative logarithm of the IC50 (pIC50) was less than 5.82.

As to `CN1CCN(Cc2ccc(NC(=O)Nc3ccc(-c4cn(C)c5ncnc(N)c45)cc3F)cc2C(F)(F)F)CC1`, the pIC50 was greater than 6.82.

As for `CN1CCN(Cc2ccc(NC(=O)Nc3ccc(-c4cn(CC(C)(C)O)c5ncnc(N)c45)cc3F)cc2C(F)(F)F)CC1`, the pIC50 is greater than 6.82.
